Residue numbers refer to the chain shown, from its start. The entries are a selection whose mix differs from that of the whole data set. The calls were merged from several studies; some rest on single wells. The list shows a part of the results. Some of the results follow.
Key:
Details in all cases: stereoisomer not certain
OR5DD = test system: T1, OR5DD
T1 sequence (whole entry): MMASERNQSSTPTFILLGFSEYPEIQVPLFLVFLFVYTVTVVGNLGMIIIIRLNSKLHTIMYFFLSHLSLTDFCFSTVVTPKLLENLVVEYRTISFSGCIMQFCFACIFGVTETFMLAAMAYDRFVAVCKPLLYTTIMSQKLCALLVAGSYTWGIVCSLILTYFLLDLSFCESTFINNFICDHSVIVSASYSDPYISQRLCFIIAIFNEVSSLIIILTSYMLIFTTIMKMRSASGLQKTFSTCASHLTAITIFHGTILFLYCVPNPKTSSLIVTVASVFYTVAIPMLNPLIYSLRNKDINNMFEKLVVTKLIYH
Outline: (§1)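 Each receptor–molecule pair is labelled responsive or non-responsive (inactive) according to whether the original authors judged the measured signal statistically different from baseline. The data were taken from the main text and supplementary material of published papers and checked for typos and inconsistencies. Assay methods differed by source, with transient luciferase assays in mammalian cell lines being common.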

Chains of the proteins cited; added tags and fusions are not shown. A line that says so, or that is headed by a name, gives the form on record, which may keep a tag or linker.
OR5L1, as listed by the source: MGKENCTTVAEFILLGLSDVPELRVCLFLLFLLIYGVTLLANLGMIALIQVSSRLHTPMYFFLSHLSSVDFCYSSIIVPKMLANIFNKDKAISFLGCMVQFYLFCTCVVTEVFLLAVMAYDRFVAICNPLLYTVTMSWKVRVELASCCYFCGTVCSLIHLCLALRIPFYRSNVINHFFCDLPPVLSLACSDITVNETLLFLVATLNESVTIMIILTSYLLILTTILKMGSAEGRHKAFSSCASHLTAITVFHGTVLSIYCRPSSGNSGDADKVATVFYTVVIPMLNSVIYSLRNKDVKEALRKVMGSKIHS
OR5H1, as listed by the source: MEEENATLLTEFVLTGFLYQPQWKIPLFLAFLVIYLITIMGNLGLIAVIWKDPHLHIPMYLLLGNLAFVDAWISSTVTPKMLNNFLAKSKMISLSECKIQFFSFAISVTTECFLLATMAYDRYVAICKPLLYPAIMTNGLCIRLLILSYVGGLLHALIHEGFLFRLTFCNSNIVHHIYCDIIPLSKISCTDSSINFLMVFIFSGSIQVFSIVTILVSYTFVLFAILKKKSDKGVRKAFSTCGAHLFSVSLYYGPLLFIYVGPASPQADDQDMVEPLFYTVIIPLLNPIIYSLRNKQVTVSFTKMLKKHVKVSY

OR5DE = test system: T2, OR5DE
T2 sequence (whole entry): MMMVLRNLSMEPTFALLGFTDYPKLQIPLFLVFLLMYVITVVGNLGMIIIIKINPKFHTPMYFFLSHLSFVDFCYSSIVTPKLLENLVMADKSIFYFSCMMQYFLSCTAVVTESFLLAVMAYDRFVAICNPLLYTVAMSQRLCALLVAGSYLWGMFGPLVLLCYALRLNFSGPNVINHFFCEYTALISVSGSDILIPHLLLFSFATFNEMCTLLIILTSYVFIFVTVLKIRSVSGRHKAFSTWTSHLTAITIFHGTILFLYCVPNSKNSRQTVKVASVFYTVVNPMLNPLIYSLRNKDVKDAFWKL
Outline: as §1

OR5DG = test system: T3, OR5DG
T3 sequence (whole entry): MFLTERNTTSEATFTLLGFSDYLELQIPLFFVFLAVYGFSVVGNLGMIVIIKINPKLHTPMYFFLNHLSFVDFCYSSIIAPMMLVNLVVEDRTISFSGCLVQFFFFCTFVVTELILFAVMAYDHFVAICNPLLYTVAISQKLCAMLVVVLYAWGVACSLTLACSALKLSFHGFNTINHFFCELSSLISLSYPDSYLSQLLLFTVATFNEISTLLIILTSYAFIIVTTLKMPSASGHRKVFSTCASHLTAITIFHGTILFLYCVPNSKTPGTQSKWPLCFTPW
Outline: as §1

OR5DI = test system: T4, OR5DI
T4 sequence (whole entry): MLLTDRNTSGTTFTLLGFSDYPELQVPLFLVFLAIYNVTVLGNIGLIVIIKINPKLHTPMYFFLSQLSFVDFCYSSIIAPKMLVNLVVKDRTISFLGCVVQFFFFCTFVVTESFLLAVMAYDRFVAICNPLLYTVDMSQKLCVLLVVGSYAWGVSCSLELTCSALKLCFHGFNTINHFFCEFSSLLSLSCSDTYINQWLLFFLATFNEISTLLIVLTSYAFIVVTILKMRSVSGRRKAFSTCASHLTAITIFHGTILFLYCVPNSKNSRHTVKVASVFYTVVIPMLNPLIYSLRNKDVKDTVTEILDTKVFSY
Outline: as §1

OR5F1 = test system: T5, OR5F1
T5 sequence (whole entry): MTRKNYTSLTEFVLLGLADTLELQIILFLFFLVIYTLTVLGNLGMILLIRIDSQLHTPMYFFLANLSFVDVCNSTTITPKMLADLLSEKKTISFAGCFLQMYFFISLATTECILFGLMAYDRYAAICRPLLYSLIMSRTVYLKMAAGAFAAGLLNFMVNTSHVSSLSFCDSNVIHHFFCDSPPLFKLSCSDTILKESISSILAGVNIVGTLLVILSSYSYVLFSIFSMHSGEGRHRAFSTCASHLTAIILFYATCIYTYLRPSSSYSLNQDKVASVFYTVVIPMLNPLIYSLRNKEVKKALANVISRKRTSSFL
Outline: as §1

OR5H1 (Homo sapiens) = target: T6, OR5H1 (Homo sapiens) (UniProt A6NKK0)
T6 sequence (whole entry): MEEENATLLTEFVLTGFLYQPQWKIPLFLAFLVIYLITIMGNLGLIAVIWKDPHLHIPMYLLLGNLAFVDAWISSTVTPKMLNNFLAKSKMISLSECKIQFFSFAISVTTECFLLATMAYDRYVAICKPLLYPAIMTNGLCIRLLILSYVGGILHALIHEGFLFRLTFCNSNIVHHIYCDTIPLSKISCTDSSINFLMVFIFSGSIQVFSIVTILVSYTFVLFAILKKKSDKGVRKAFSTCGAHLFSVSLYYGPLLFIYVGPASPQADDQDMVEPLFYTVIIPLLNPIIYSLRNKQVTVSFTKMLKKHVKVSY
Outline: as §1

OR5H1 = test system: T7, OR5H1
T7 sequence (whole entry): T6 sequence (whole entry) with I153L, T181I
Outline: as §1

OR5H2 [1] = test system: T8, OR5H2
T8 sequence (whole entry): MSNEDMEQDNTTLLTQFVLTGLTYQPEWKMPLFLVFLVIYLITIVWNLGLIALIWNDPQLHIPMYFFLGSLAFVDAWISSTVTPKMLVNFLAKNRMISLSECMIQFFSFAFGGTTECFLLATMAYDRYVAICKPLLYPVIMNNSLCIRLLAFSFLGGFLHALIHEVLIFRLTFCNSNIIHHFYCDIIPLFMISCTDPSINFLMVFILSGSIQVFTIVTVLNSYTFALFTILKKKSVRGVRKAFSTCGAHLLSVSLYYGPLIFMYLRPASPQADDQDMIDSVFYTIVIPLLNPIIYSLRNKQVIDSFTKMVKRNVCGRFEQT
Outline: as §1

OR5H2 [2] = test system: T9, OR5H2; remark: listed apart in the source
T9 sequence (whole entry): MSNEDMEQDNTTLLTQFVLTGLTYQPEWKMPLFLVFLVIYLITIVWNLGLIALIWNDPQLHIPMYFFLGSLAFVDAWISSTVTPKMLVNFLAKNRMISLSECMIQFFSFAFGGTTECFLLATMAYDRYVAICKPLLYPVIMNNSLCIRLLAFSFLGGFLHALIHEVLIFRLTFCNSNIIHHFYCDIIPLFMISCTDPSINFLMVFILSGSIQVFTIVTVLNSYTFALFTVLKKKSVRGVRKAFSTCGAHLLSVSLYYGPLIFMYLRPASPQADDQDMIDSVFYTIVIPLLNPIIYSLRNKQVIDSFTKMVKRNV
Outline: as §1

OR5H6 [3] = test system: T10, OR5H6
T10 sequence (whole entry): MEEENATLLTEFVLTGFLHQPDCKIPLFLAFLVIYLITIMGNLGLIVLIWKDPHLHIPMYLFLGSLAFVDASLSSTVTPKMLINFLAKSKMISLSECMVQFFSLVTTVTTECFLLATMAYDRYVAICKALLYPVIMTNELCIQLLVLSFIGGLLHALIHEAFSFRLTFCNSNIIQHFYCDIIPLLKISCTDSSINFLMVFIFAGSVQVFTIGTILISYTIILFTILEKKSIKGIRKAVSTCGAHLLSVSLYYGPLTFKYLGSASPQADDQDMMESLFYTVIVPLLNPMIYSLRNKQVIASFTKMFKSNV
Outline: as §1

OR5H6 [4] = test system: T11, OR5H6; remark: listed apart in the source
T11 sequence (whole entry): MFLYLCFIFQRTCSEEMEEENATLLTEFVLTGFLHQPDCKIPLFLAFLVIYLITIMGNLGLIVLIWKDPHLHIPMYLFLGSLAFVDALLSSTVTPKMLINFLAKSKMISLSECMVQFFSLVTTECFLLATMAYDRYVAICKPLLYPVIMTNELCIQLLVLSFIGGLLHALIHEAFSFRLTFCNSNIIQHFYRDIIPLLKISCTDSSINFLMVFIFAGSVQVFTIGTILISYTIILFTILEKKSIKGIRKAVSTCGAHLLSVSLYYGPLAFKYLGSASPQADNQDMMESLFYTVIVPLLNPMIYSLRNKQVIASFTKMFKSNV
Outline: as §1

OR5I1 (Homo sapiens) = target: T12, OR5I1 (Homo sapiens) (UniProt Q13606)
T12 sequence (whole entry): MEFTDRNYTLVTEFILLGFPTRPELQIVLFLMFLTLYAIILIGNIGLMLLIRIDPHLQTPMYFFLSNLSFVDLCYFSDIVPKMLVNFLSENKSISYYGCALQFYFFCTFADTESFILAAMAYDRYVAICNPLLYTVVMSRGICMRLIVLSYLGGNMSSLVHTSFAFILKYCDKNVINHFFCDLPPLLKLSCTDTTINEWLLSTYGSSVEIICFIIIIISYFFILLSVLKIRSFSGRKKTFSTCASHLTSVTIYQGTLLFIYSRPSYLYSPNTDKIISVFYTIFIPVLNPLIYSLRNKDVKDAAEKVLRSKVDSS
Outline: as §1

OR5J2 (Homo sapiens) = target: T13, OR5J2 (Homo sapiens) (UniProt Q8NH18)
T13 sequence (whole entry): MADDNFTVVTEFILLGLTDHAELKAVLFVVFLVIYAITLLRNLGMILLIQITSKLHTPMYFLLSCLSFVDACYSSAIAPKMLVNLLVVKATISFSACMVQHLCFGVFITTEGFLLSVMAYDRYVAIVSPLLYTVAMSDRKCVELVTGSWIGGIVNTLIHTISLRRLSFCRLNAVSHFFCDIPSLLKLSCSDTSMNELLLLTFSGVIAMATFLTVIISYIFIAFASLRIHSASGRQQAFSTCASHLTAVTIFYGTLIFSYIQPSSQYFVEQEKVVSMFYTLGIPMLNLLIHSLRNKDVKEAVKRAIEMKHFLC
Outline: as §1

OR5K1 (Homo sapiens) = target: T14, OR5K1 (Homo sapiens) (UniProt Q8NHB7)
T14 sequence (whole entry): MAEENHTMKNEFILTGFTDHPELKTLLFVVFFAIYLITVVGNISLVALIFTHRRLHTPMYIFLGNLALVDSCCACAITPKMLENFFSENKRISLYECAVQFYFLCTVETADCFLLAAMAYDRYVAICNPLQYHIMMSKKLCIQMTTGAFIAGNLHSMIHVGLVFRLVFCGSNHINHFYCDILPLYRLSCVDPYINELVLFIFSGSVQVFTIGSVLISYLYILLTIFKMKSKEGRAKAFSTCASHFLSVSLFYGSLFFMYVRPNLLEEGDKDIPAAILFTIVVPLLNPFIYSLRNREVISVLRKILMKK
Outline: as §1

OR5K2 (Homo sapiens) = target: T15, OR5K2 (Homo sapiens) (UniProt Q8NHB8)
T15 sequence (whole entry): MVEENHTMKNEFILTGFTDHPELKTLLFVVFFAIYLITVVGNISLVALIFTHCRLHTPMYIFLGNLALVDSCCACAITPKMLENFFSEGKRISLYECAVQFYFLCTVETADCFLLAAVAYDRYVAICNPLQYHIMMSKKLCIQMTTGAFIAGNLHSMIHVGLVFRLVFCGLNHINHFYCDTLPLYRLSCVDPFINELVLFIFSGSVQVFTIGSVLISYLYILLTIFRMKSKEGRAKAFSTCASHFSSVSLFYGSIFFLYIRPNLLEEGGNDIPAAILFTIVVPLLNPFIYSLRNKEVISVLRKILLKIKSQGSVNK
Outline: as §1

OR5K3 = test system: T16, OR5K3
T16 sequence (whole entry): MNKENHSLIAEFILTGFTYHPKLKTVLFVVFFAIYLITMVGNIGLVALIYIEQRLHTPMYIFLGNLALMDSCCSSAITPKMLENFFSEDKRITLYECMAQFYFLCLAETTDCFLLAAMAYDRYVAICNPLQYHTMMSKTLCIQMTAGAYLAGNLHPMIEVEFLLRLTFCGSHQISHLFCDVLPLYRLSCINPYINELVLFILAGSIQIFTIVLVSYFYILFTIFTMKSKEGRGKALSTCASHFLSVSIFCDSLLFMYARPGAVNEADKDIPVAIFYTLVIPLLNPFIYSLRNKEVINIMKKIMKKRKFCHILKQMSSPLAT
Outline: as §1

OR5K4 = test system: T17, OR5K4
T17 sequence (whole entry): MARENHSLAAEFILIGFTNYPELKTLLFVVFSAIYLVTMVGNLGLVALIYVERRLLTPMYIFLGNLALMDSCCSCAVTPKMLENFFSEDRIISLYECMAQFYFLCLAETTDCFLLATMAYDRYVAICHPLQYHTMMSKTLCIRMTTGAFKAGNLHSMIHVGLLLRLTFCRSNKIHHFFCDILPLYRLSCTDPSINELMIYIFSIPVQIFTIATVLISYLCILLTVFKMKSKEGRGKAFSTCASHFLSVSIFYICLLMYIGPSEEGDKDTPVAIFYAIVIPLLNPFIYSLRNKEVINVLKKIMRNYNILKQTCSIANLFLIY
Outline: as §1

OR5L1 (Homo sapiens) = target: T18, OR5L1 (Homo sapiens) (UniProt Q8NGL2)
T18 sequence (whole entry): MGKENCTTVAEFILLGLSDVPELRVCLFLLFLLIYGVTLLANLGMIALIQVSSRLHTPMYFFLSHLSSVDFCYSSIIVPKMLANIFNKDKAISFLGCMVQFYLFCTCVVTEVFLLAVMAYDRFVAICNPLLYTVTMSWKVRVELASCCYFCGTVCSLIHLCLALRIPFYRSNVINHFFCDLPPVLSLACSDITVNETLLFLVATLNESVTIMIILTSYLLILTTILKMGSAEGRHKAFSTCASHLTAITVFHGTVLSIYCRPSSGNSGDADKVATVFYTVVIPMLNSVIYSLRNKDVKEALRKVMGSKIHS
Outline: as §1

OR5L1 = test system: T19, OR5L1
T19 sequence (whole entry): T18 sequence (whole entry) with T240S
Outline: as §1

OR5M11 (Homo sapiens) = target: T20, OR5M11 (Homo sapiens) (UniProt Q96RB7)
T20 sequence (whole entry): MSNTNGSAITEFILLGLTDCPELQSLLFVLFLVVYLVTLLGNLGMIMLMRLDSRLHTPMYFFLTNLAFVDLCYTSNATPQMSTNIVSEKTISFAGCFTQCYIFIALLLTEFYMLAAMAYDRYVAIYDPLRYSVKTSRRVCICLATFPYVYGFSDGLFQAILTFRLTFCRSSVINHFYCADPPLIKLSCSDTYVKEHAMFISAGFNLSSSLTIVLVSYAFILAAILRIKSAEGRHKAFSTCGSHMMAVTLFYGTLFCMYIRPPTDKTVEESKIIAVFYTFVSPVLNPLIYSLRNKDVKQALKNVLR
Outline: as §1

Measured: odorant receptor agonist call;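 note: active if original authors judged signal statistically different from baseline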

CCC(C)=O
inactive: all assays above
